PubChem BioAssay AID743121, NCATS, 2013
Shown is one part, drawn at random, of about 26,000 reagents tested. Over the whole deposit, 167 (0.63%) got an active call. 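Calls are per gene from RSA p-values that are not deposited; an individual active-marked siRNA can sensitise only weakly.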 Reagents against one gene are numbered here. Not all columns of the deposit are shown.

Screen: 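Genes whose silencing strengthens cell killing by camptothecin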 (primary screen)
Cell system: MDA-MB-231 cells, a human breast cancer line
Reagent: single siRNA against human genes, 20 nM siRNA (0.8 pmol per well)
Timing: 120 h (drug added 48 h after transfection, read 72 h later)
Conditions: camptothecin 20 nM (about EC30) for 72 h; vehicle 0.1% DMSO in parallel plates
Measured: 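Cell viability by ATP luminescence (CellTiter-Glo) as % of non-targeting siRNA wells, and the log2 ratio of viability without drug over viability with camptothecin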
Reading the numbers: log2 vehicle/camptothecin viability: higher = stronger sensitisation to camptothecin
Hit rule: 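Active genes have an RSA gene-level p-value below 0.001, computed from the ratios of their separate siRNAs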

The first 7 records as a preview:
| gene | reagent no. | log2 vehicle/camptothecin viability | outcome |
| --- | --- | --- | --- |
| ESRRB (estrogen related receptor beta) | 1 | -0.224 | inactive |
| ESRRB (estrogen related receptor beta) | 2 | -0.167 | inactive |
| ESRRB (estrogen related receptor beta) | 3 | -0.0432 | inactive |
| ADAMTS14 (ADAM metallopeptidase with thrombospondin type 1 motif 14) | 1 | -0.123 | inactive |
| ADAMTS14 (ADAM metallopeptidase with thrombospondin type 1 motif 14) | 2 | -0.0141 | inactive |
| ADAMTS14 (ADAM metallopeptidase with thrombospondin type 1 motif 14) | 3 | -0.375 | inactive |
| PHKG1 (phosphorylase kinase catalytic subunit gamma 1) | 1 | -0.119 | inactive |

Main list, from the first entry:
| gene | reagent no. | log2 vehicle/camptothecin viability | outcome |
| --- | --- | --- | --- |
| ESRRB (estrogen related receptor beta) | 1 | -0.224 | inactive |
| ESRRB (estrogen related receptor beta) | 2 | -0.167 | inactive |
| ESRRB (estrogen related receptor beta) | 3 | -0.0432 | inactive |
| ADAMTS14 (ADAM metallopeptidase with thrombospondin type 1 motif 14) | 1 | -0.123 | inactive |
| ADAMTS14 (ADAM metallopeptidase with thrombospondin type 1 motif 14) | 2 | -0.0141 | inactive |
| ADAMTS14 (ADAM metallopeptidase with thrombospondin type 1 motif 14) | 3 | -0.375 | inactive |
| PHKG1 (phosphorylase kinase catalytic subunit gamma 1) | 1 | -0.119 | inactive |
| PHKG1 (phosphorylase kinase catalytic subunit gamma 1) | 2 | -0.0192 | inactive |
| PHKG1 (phosphorylase kinase catalytic subunit gamma 1) | 3 | -0.162 | inactive |
| PHKG1 (phosphorylase kinase catalytic subunit gamma 1) | 4 | 0.359 | inactive |
| EPG5 (ectopic P-granules 5 autophagy tethering factor) | 1 | -0.184 | inactive |
| EPG5 (ectopic P-granules 5 autophagy tethering factor) | 2 | 0.052 | inactive |
| EPG5 (ectopic P-granules 5 autophagy tethering factor) | 3 | -0.205 | inactive |
| EPG5 (ectopic P-granules 5 autophagy tethering factor) | 4 | -0.113 | inactive |
| CDK13 (cyclin dependent kinase 13) | 1 | 0.0505 | inactive |
| CDK13 (cyclin dependent kinase 13) | 2 | 0.184 | inactive |
| CDK13 (cyclin dependent kinase 13) | 3 | -0.201 | inactive |
| CDK13 (cyclin dependent kinase 13) | 4 | -0.0999 | inactive |
| SLC67A1 | 1 | -0.293 | inactive |
| SLC67A1 | 2 | -0.0494 | inactive |
| SLC67A1 | 3 | -0.449 | inactive |
| SLC67A1 | 4 | 0.167 | inactive |
| FGFRL1 (fibroblast growth factor receptor like 1) | 1 | -0.566 | inactive |
| FGFRL1 (fibroblast growth factor receptor like 1) | 2 | 0.602 | inactive |
| FGFRL1 (fibroblast growth factor receptor like 1) | 3 | -0.0461 | inactive |
| FGFRL1 (fibroblast growth factor receptor like 1) | 4 | -0.0854 | inactive |
| GIPR (gastric inhibitory polypeptide receptor) | 1 | -0.0319 | inactive |
| GIPR (gastric inhibitory polypeptide receptor) | 2 | -0.226 | inactive |
| GIPR (gastric inhibitory polypeptide receptor) | 3 | -0.716 | inactive |
| GIPR (gastric inhibitory polypeptide receptor) | 4 | -0.328 | inactive |
| PDE9A (phosphodiesterase 9A) | 1 | -0.282 | inactive |
| PDE9A (phosphodiesterase 9A) | 2 | -0.0795 | inactive |
| PDE9A (phosphodiesterase 9A) | 3 | -0.0107 | inactive |
| PDE9A (phosphodiesterase 9A) | 4 | -0.344 | inactive |
| GPS1 (G protein pathway suppressor 1) | 1 | 0.147 | inactive |
| GPS1 (G protein pathway suppressor 1) | 2 | 0.0939 | inactive |
| GPS1 (G protein pathway suppressor 1) | 3 | 0.542 | inactive |
| GPS1 (G protein pathway suppressor 1) | 4 | 0.183 | inactive |
| INTS6 (integrator complex subunit 6) | 1 | -0.07 | inactive |
| INTS6 (integrator complex subunit 6) | 2 | 0.00175 | inactive |
| INTS6 (integrator complex subunit 6) | 3 | -0.348 | inactive |
| INTS6 (integrator complex subunit 6) | 4 | -0.209 | inactive |
| TLR6 (toll like receptor 6) | 1 | -0.0618 | inactive |
| TLR6 (toll like receptor 6) | 2 | -0.341 | inactive |
| TLR6 (toll like receptor 6) | 3 | 0.0407 | inactive |
| PLCH1 (phospholipase C eta 1) | 1 | -0.263 | inactive |
| PLCH1 (phospholipase C eta 1) | 2 | -0.227 | inactive |
| PLCH1 (phospholipase C eta 1) | 3 | 0.359 | inactive |
| PLCH1 (phospholipase C eta 1) | 4 | -0.195 | inactive |
| RTN4RL1 (reticulon 4 receptor like 1) | 1 | -0.292 | inactive |
| RTN4RL1 (reticulon 4 receptor like 1) | 2 | -0.282 | inactive |
| RTN4RL1 (reticulon 4 receptor like 1) | 3 | -0.376 | inactive |
| RTN4RL1 (reticulon 4 receptor like 1) | 4 | 0.062 | inactive |
| LOC100131514 (retired record) | 1 | -0.277 | inactive |
| LOC100131514 (retired record) | 2 | -0.165 | inactive |
| GALNS (galactosamine (N-acetyl)-6-sulfatase) | 1 | -0.0688 | inactive |
| GALNS (galactosamine (N-acetyl)-6-sulfatase) | 2 | 0.54 | inactive |
| GALNS (galactosamine (N-acetyl)-6-sulfatase) | 3 | -0.965 | inactive |
| GALNS (galactosamine (N-acetyl)-6-sulfatase) | 4 | 0.00543 | inactive |
| AURKC (aurora kinase C) | 1 | 0.00258 | inactive |
| AURKC (aurora kinase C) | 2 | -0.0498 | inactive |
| AURKC (aurora kinase C) | 3 | -0.342 | inactive |
| AURKC (aurora kinase C) | 4 | -0.214 | inactive |
| PCCA (propionyl-CoA carboxylase subunit alpha) | 1 | 0.701 | inactive |
| PCCA (propionyl-CoA carboxylase subunit alpha) | 2 | -0.137 | inactive |
| PCCA (propionyl-CoA carboxylase subunit alpha) | 3 | -0.416 | inactive |
| PCCA (propionyl-CoA carboxylase subunit alpha) | 4 | -0.212 | inactive |
| DPYSL2 (dihydropyrimidinase like 2) | 1 | 0.195 | inactive |
| DPYSL2 (dihydropyrimidinase like 2) | 2 | -0.0823 | inactive |
| DPYSL2 (dihydropyrimidinase like 2) | 3 | -0.182 | inactive |
| NFAT5 (nuclear factor of activated T cells 5) | 1 | -0.222 | inactive |
| NFAT5 (nuclear factor of activated T cells 5) | 2 | 0.555 | inactive |
| NFAT5 (nuclear factor of activated T cells 5) | 3 | 0.74 | inactive |
| NFAT5 (nuclear factor of activated T cells 5) | 4 | -0.0421 | inactive |
| RAD23A (RAD23 nucleotide excision repair protein A) | 1 | -0.262 | inactive |
| RAD23A (RAD23 nucleotide excision repair protein A) | 2 | 0.164 | inactive |
| RAD23A (RAD23 nucleotide excision repair protein A) | 3 | -0.138 | inactive |
| TRADD (TNFRSF1A associated via death domain) | 1 | -0.0409 | inactive |
| TRADD (TNFRSF1A associated via death domain) | 2 | -0.227 | inactive |
| TRADD (TNFRSF1A associated via death domain) | 3 | 0.863 | inactive |
| TRADD (TNFRSF1A associated via death domain) | 4 | 0.193 | inactive |
| TACR3 (tachykinin receptor 3) | 1 | -0.125 | inactive |
| TACR3 (tachykinin receptor 3) | 2 | -0.514 | inactive |
| TACR3 (tachykinin receptor 3) | 3 | 0.0704 | inactive |
| TACR3 (tachykinin receptor 3) | 4 | 1.17 | inactive |
| KCNB2 (potassium voltage-gated channel subfamily B member 2) | 1 | 0.279 | inactive |
| KCNB2 (potassium voltage-gated channel subfamily B member 2) | 2 | -0.381 | inactive |
| KCNB2 (potassium voltage-gated channel subfamily B member 2) | 3 | -0.262 | inactive |
